Test results published in patent US11413295B2, “Oral preparation of obeticholic acid” (Intercept Pharmaceuticals, Inc., priority 2016, dated 2022).
Some entries share one result that the patent states for a list of compounds.

Experiment: Chemical stability: obeticholic acid dimer production by HPLC (Test Example 3)
Type: physicochemical
Conditions: before storage; active pharmaceutical ingredient alone vs wet granulated FC tablets
Experimental: The following assessments were carried out to see whether, in cases where the amorphous form of obeticholic acid was used, there were any changes in chemical stability even after wet granulation. Specifically, measurements were taken of the amounts in which obeticholic acid dimers were produced (referred to in Patent Document 2 as “Impurity 6,” “3α (3α, 7α-dihydroxy-6α-ethyl-5β-cholan-24-oyloxy)-7α-hydroxy-6α-ethyl-5β-cholan-24-oic acid,” and “6ECDCA dimer”), which were confirmed to have a high propensity to increase in the preparation process and stability tests among known related substances of obeticholic acid disclosed in Patent Document 2, for example.
Test tubes containing the obeticholic acid prepared in Example 19 and the obeticholic acid 20 mg FC tablets of Example 4 were stored under the following conditions. The amounts in which obeticholic acid dimer was produced before (initial) and after storage were measured in accordance with Test Example 3. […]
4 weeks at 60° C. (closed)
Acetonitrile/water (9/1) was added in an amount of exactly 10 mL to test tubes that had been retrieved from storage, and the contents were ultrasonically treated to extract the obeticholic acid. […]
The above three standard solutions were used to produce a calibration curve, and the obeticholic acid dimer contained in the sample solutions was quantified. […]

Q: With `CC[C@H]1[C@@H](O)[C@@H]2[C@H](CC[C@]3(C)[C@@H]([C@H](C)CCC(=O)O)CC[C@@H]23)[C@@]2(C)CC[C@@H](O)C[C@@H]12` [Obeticholic acid, 6α-ethyl-3α, 7 α-dihydroxy-5β-cholan-24-oic acid] as the compound, how does the “obeticholic acid dimer before and after wet granulation” value read?
A: less than 0.1%
